{
  "source": "PubChem BioAssay AID1347076",
  "about": "(National Center for Advancing Translational Sciences (NCATS), 2019)",
  "note": "Hit rate of the full screen: of about 400,000 compounds, about 13,000 (3.2%) were called active. Inconclusive means that the source gave no clear call. Such entries were picked first, then a sample of the others. Calls follow the shape of the dose curve; as a rule, active = well fitted cell-killing curve with a large enough effect; inconclusive = small, poorly fitted or top-dose-only effect, or effect the other way; inactive = flat fitted curve, though single readings scatter. Potencies of inconclusive entries are doubtful fits and often do not repeat. % is scaled to controls: 0 for no effect and ±100 for the full control effect; potency is read from the fitted curve at half-maximal effect.",
  "data": [
    {"assay": "qHTS assay for MDR1-selective chemotherapeutics: Primary screen using the drug-selected MDR subline cells KB-V1; also: nearly all actives have a fitted effect of over 60% in size", "settings": "KB-V1 MDR cells viability, CellTiter-Glo, 72 h; activity change, negative = cytotoxicity: at 46.1 µM (top of the series)", "in_short": "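KB-V1 MDR subline cells in DMEM (phenol-red free, 10% FBS) exposed to compounds in qHTS concentration series for 72 h at 37 degrees C. Viability read by CellTiter-Glo luminescence; concentration-effect curves fitted after normalization and correction.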", "values": [
      {"smiles": "CC1CCN(c2nc(N(C)c3ccccc3)nc(N)c2[N+](=O)[O-])CC1", "Potency": "inconclusive: 18.4 µM [cytotoxic, single point]"},
      {"smiles": "CN(C)c1nc(OCc2ccccc2)c2ncc(=O)[nH]c2n1", "Potency": "inconclusive: 10.3 µM [cytotoxic, partial curve, poor fit]"},
      {"smiles": "O=c1c2ccccc2n(Cc2cccc(F)c2)c(=O)n1Cc1ccccc1Cl", "activity change, negative = cytotoxicity": "inactive: -1.25%"},
      {"smiles": "CCCCN1C(=O)C2(NNc3ccccc3O2)c2ccccc21", "note": "(stereo not given)", "Potency": "inconclusive: 23.1 µM [cytotoxic, single point]"},
      {"smiles": "c1ccc(-c2ccc(-c3nc(-c4cccnc4)no3)cc2)cc1", "Potency": "active: 16.4 µM"},
      {"smiles": "COc1cccc(N/C(SCc2ccccc2C)=C(/C#N)C(=O)NCc2cccs2)c1", "Potency": "active: 5.17 µM"},
      {"smiles": "Cc1cccc(NC(=S)NCc2ccncc2)c1C", "activity change, negative = cytotoxicity": "inactive: -16%"},
      {"smiles": "CC(=O)c1ccc(NC(=O)NNS(=O)(=O)c2ccc([N+](=O)[O-])cc2)cc1", "Potency": "inconclusive: 16.4 µM [rising, partial curve, poor fit]"},
      {"smiles": "CCOc1ccc(/C=C/c2ccnc3ccccc23)cc1OCC", "Potency": "inconclusive: 29.1 µM [cytotoxic, single point]"},
      {"smiles": "COc1ccc(CC(=O)OCC(=O)N2CCCC(C)C2)cc1", "note": "(stereo not given)", "activity change, negative = cytotoxicity": "inactive: -11.9%"},
      {"smiles": "Cc1cc(C(=O)COc2cccnc2[N+](=O)[O-])c(C)n1Cc1ccco1", "Potency": "inconclusive: 23.1 µM [cytotoxic, single point]"},
      {"smiles": "COc1ccc(CNC(=O)C[C@H]2C(=O)N(CCc3ccccc3)C[C@@H]2Cc2ccccc2)cc1", "Potency": "inconclusive: 0.291 µM [cytotoxic, full curve, poor fit]"},
      {"smiles": "CC(=O)c1sc(NC(=O)c2cccnc2Cl)nc1C", "Potency": "inconclusive: 20.6 µM [rising, single point]"},
      {"smiles": "C/C(=N\\NC(=O)c1nn(C)cc1Br)c1cccc(NC(=O)c2ccncc2)c1", "Potency": "inconclusive: 9.2 µM [cytotoxic, partial curve]"},
      {"smiles": "CC(=O)N1CC(c2ccccc2)C(c2ccc(Cl)cc2)=N1", "note": "(stereo not given)", "Potency": "active: 14.6 µM"},
      {"smiles": "O=C(Nc1ccccc1)c1cc2ccccc2o1", "activity change, negative = cytotoxicity": "inactive: -6.19%"},
      {"smiles": "CC1CCN(C(=O)c2ccc(SCc3ccccc3F)c([N+](=O)[O-])c2)CC1", "activity change, negative = cytotoxicity": "inactive: -13.3%"},
      {"smiles": "CCn1cc(C(=O)N2CCN(c3cc(C)ccc3C)CC2)c(=O)c2cc(S(=O)(=O)N(C)C3CCCCC3)ccc21", "Potency": "inconclusive: 29.1 µM [cytotoxic, single point]"},
      {"smiles": "COc1ccc(NC(=O)c2cc(OC)c(OC)c(OC)c2Br)cc1OC", "Potency": "inconclusive: 20.6 µM [cytotoxic, single point]"},
      {"smiles": "COc1ccc(-c2ccc3c(N)c(C(=O)Nc4cc(F)ccc4C)sc3n2)cc1", "Potency": "inconclusive: 2.91 µM [rising, single point]"},
      {"smiles": "Cc1ccc(C)c(NC(=O)CSc2nc3c(oc4ccccc43)c(=O)n2-c2ccccc2)c1", "Potency": "active: 7.31 µM"},
      {"smiles": "CC(=O)NCC1CCCN(C(=O)c2ccc(OC3CCN(Cc4ccccn4)CC3)cc2)C1", "note": "(stereo not given)", "Potency": "inconclusive: 14.6 µM [rising, partial curve]"},
      {"smiles": "Clc1ccc(OCCn2ccnc2)c(Br)c1", "Potency": "inconclusive: 29.1 µM [cytotoxic, single point]"},
      {"smiles": "CC1(C(=O)NC2CCCCC2)CCC(=O)N1C1CCN(Cc2ccccc2)CC1", "note": "(stereo not given)", "activity change, negative = cytotoxicity": "inactive: 17.4%"},
      {"smiles": "COc1cc2c(cc1OC)C(c1ccc(-c3ccc(Cl)cc3Cl)o1)=NCC2", "Potency": "active: 2.59 µM"},
      {"smiles": "C=C(C)Cn1c(SCC(=O)N/N=C/c2c(O)ccc3ccccc23)nc2ccccc2c1=O", "Potency": "inconclusive: 18.4 µM [cytotoxic, single point]"},
      {"smiles": "O=C(C[C@@H]1C/C=C\\CC[C@H](Cc2ccc(F)cc2)C(=O)OC[C@@H]2CCCN2C1=O)NCCO", "activity change, negative = cytotoxicity": "inactive: -6.45%"},
      {"smiles": "COc1ccc(-c2onc(C)c2C)cc1S(=O)(=O)NCC1CCN(Cc2cc(C)ccc2C)CC1", "activity change, negative = cytotoxicity": "inactive: -5.6%"},
      {"smiles": "COC(=O)c1ccccc1NC(=O)c1ccc2nc(CCc3ccccc3)oc2c1", "activity change, negative = cytotoxicity": "inactive: 20.6%"},
      {"smiles": "FC(F)(F)c1cccc(-c2nc3ccccc3n2C(c2ccccc2)c2nc3ccccc3[nH]2)c1", "note": "(stereo not given)", "Potency": "inconclusive: 23.1 µM [cytotoxic, single point]"},
      {"smiles": "CN(C)c1ccc(/C=C(/C(=O)c2ccc(Cl)cc2Cl)n2cncn2)cc1", "Potency": "active: 5.17 µM"},
      {"smiles": "Cc1ccc(NC(=O)N2CCC(C(=O)NCC(C)C)CC2)cc1", "Potency": "inconclusive: 29.1 µM [cytotoxic, single point]"},
      {"smiles": "Cc1nc(SCC2(C)CC2(Cl)Cl)n[nH]1", "note": "(stereo not given)", "Potency": "inconclusive: 5.8 µM [rising, partial curve, poor fit]"},
      {"smiles": "COc1ccc(C2CC(=O)OC3=C2C(=O)CC(C)(C)C3)c(OC)c1", "note": "(stereo not given)", "Potency": "inconclusive: 7.31 µM [rising, partial curve]"},
      {"smiles": "COc1cccc(-c2noc(COc3ccccc3Cl)n2)c1", "Potency": "inconclusive: 25.9 µM [rising, single point]"},
      {"smiles": "COCCNC(=O)C1(C)CCCN(Cc2ccccc2N(C)C)C1", "note": "(stereo not given)", "Potency": "inconclusive: 18.4 µM [cytotoxic, partial curve, poor fit]"},
      {"smiles": "Cc1ccc(S(=O)(=O)C2(C(=O)N3CCCCCC3)CC2)cc1", "Potency": "active: 23.1 µM"},
      {"smiles": "O=C(CSCc1cnn(-c2ccccc2)c1-n1cccc1)NCc1cccs1", "activity change, negative = cytotoxicity": "inactive: 3.37%"},
      {"smiles": "Cc1cccc(NC(=S)NCCC(c2ccccc2)c2ccccc2)c1", "Potency": "inconclusive: 29.1 µM [cytotoxic, single point]"},
      {"smiles": "Cc1cc(C)cc(N(CCC#N)C(=O)CSC2=Nc3ccccc3C3CC=NN23)c1", "note": "(stereo not given)", "Potency": "inconclusive: 9.2 µM [cytotoxic, partial curve, poor fit]"},
      {"smiles": "Cn1nc(C(F)(F)F)c2cc(NC(=O)OCc3ccc(F)cc3)sc21", "Potency": "inconclusive: 8.2 µM [cytotoxic, partial curve, poor fit]"},
      {"smiles": "Cc1ccc(S(=O)(=O)N2CCN(C(=O)C3CC3C)CC2)c(C)c1", "note": "(stereo not given)", "Potency": "inconclusive: 20.6 µM [cytotoxic, single point]"},
      {"smiles": "C=CCn1c(=O)c(C(=O)NCCc2ccccc2)c(O)c2ccccc21", "Potency": "active: 20.6 µM"},
      {"smiles": "CC(=O)Nc1c(Nc2ccccc2)c2ccccc2oc1=O", "Potency": "inconclusive: 29.1 µM [cytotoxic, partial curve, poor fit]"},
      {"smiles": "COc1cccc(-c2c(-c3cc(OC)cc(OC)c3)n(C)c3ccc(-c4cccc5[nH]ccc45)cc23)c1", "activity change, negative = cytotoxicity": "inactive: -26.3%"}
    ]}
  ]
}
